Laboratory results reported in paper PMC4166935, “Toward Biophysical Probes for the 5-HT3 Receptor: Structure−Activity Relationship Study of Granisetron Derivatives” (Journal of Medicinal Chemistry, 2010).
The match of structure and compound is tentative.

Sequences of proteins named here, by UniProt entry; tags and fusion partners are left off. Residues count along the entry.
UniProt P46098, 24-478 limits assumed: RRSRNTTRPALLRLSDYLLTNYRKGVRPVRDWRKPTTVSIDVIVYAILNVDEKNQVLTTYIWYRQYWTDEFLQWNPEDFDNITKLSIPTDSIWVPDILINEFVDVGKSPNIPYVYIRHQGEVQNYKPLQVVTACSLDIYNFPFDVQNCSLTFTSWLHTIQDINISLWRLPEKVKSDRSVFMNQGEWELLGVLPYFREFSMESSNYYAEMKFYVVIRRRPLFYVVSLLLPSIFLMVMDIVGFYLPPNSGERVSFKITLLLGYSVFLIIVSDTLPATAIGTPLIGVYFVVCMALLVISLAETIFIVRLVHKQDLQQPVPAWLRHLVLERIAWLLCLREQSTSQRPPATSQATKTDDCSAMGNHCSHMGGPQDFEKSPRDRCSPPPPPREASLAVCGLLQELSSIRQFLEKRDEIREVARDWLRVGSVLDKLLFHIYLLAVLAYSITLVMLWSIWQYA

Target: h5-HT3AR in HEK293 cells (Homo sapiens, UniProt P46098)
Test: Confocal labeling of HEK293 cells stably transfected with h5-HT3AR with fluorescent probe 16
Conditions: 10 nM 16 for 10 min, without quipazine, confocal microscope

CC1=CC(C)=[N+]2C1=Cc1ccc(CCC(=O)NCCCn3nc(C(=O)NC4CC5CCCC(C4)N5C)c4ccccc43)n1[B-]2(F)F (stereo not shown)
fluorescent labeling of cells: Fluorescence is observed in all cells
